For one substance, binding results are on record in publication PMC7521923.

By UniProt entry, the sequences of proteins in these tests, tags left out. Residues count along the entry.
UniProt Q13467, residues 27-585: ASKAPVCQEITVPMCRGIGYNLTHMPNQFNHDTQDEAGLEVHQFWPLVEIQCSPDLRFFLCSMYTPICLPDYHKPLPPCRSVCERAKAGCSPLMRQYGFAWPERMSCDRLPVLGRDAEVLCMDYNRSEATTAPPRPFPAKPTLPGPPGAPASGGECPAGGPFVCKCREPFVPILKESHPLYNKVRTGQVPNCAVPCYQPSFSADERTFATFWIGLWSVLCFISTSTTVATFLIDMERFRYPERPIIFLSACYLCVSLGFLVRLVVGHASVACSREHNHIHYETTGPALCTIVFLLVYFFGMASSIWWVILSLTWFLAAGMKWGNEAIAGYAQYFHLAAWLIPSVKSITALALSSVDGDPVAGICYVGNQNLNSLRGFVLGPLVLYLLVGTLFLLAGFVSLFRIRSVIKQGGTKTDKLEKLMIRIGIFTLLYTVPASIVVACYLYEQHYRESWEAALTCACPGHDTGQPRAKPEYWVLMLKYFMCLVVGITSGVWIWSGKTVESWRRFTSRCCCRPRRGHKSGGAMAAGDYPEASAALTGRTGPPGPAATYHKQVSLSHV

Results are given in words; binding and its absence hold for the method and conditions named. Binding seen in cells or lysates may run through a third protein. Some results given as binding are weak or reduced against the parent protein; the word gives no strength.

In the assay the target is T1, USP8 (UniProt P40818).
T1 sequence: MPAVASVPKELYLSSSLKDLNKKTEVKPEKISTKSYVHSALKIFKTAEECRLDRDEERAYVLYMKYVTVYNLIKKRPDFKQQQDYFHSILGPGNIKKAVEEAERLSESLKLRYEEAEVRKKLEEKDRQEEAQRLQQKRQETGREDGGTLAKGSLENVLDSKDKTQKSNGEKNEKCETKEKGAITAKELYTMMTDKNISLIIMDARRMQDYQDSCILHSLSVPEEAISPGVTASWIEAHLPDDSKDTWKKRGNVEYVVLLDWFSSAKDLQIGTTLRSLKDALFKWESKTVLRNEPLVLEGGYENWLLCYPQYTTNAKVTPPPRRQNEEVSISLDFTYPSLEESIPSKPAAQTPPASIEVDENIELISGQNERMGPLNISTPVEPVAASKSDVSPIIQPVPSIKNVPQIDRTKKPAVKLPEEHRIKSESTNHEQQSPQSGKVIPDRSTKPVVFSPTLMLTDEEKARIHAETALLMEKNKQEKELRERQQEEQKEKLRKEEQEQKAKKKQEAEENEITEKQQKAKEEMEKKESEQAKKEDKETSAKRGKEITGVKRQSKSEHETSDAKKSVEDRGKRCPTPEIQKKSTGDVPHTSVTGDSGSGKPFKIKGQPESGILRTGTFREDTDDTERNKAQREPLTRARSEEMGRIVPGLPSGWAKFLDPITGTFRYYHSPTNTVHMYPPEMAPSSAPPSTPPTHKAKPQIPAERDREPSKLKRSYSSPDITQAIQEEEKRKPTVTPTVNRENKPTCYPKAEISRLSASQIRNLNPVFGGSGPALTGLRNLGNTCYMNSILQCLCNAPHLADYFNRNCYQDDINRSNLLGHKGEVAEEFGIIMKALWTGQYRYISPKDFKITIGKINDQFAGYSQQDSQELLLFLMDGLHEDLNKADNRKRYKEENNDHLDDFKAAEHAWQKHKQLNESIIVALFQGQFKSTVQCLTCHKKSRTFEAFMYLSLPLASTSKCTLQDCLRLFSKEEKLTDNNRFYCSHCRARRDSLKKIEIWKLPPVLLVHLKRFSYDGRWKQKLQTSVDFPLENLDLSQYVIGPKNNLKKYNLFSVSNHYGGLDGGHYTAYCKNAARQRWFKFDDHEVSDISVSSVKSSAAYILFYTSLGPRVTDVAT
As to the kind of experiment: co-IP; both partners expressed in transfected HEK293T cells (FZD5-USP8 also in T79KO cells and with TMEM79 overexpressed; USP8-TMEM79 in FZD null cells); NP40 lysis buffer (50 mM Tris pH 7.5, 150 mM NaCl, 1 mM EDTA, 1% NP40, 10% glycerol, 10 mM NaF); antibody-conjugated agarose beads (anti-c-Myc, anti-HA, anti-Flag M2 or anti-V5) at 4°C overnight; five washes; immunoblot. A general note: Immunoblotting shows a protein as a band on a membrane.

Turning to “FZD5 (transfected) (from UniProt Q13467 27-585) (receptor)”, the binding result is reported as “binds”.
